Patent US8071774B2, “Heterocyclic spiro-compounds as aldosterone synthase inhibitors” (Novartis AG, priority 2006, dated 2011)

Conditions: low-salt diet for 48 hours plus 10 mg/kg furosemide s.c. or i.p. 16 hours (possibly also 2 hours) before start; over a period of 12-24 hours

## NS(=O)(=O)c1cc(C(=O)O)c(NCc2ccco2)cc1Cl [furosemide]
  increase of plasma aldosterone level: 5 to 20 fold
